{
  "source": "patent US11723898B2",
  "about": "“Androgen receptor inhibitors for the treatment of non-metastatic castration-resistant prostate cancer in subjects with severe hepatic impairment” (Aragon Pharmaceuticals, Inc., priority 2019, dated 2023)",
  "origin": "cited, not measured here",
  "system": "W741L/W741C AR mutants",
  "conditions": "cited from earlier work",
  "note": "At least one compound was matched to its structure with a doubt left.",
  "data": [
    {"smiles": "CC(O)(CS(=O)(=O)c1ccc(F)cc1)C(=O)Nc1ccc(C#N)c(C(F)(F)F)c1", "note": "(stereo not shown) [bicalutamide]", "values": [
      {"measurement": "agonist activity", "value": "act as AR agonists"}
    ]}
  ]
}
